Measured values: patent US7572434B2, “Method for assessing the effect of a drug on long term memory formation” (Cold Spring Harbor Laboratory, priority 1994, dated 2009)
For some of these results: Where cells or extracts were used, other partners may take part. For some of these results: A weaker result is weaker than the reference pair of the same experiment. For some of these results: Where a protein sequence is shown, tags need not be part of it. For some of these results: Construct, isoform or probe ends are uncertain for at least one entry.

Experiments:
dCREB1 [1] = test system: T1, dCREB1; experiment: binding assay; details: expression-library filter screen with labelled 3xCRE probe; protein in a lysate after overexpression; protein details: lambda gt11 expression clone on filter lifts; label: 32P fill-in
T1 sequence (limits assumed): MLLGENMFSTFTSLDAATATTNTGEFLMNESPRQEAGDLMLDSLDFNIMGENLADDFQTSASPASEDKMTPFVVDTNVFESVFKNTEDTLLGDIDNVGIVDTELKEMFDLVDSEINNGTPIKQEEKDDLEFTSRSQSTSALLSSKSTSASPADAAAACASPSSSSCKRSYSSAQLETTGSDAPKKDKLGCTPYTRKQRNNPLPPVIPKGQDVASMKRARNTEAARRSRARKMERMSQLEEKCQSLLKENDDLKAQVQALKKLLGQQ

dCREB2-b [2] = experiment: binding assay; details: expression-library filter screen with labelled 3xCRE probe; protein in a lysate after overexpression; label: 32P fill-in
dCREB1 [3] = test system: T1, dCREB1; experiment: EMSA; details: protein in an extract
dCREB2-b [4] = experiment: EMSA; details: purified recombinant protein
dCREB2-b [5] = experiment: competition with a labelled probe; details: higher affinity for CRE than nonspecific DNA; competitors not reported individually; purified recombinant protein

Sequence: CGTCTAGATCTATGACTGAATATGACGTAATATGACGTAATGGTACCAGATCTGGCC (double strand) [3xCRE screening probe]
- binding result (dCREB1 [1]): binds
- binding result (dCREB2-b [2]): binds

Sequence: AAATGAATTAACGGAAATGAATTAACGGAAATGAATTAACGG (double strand) [3xmCRE mutant]
- binding result (dCREB1 [3]; lower affinity than 3xCRE, variant of 3xCRE wild-type): binds more weakly
- binding result (dCREB2-b [4]; lower but detectable affinity than wild-type 3xCRE, variant of 3xCRE wild-type): binds more weakly

Sequence: TCGACCCACAGTTTCGGGTTTTCGAGCAAGTCTGCTAGTGTCTGATGAGGCCGAAAGGCCGAAACGCGAAGCCGTATTGCACCACGCTCATCGAGAAGGC (double strand) [Nonspecific competitor #2]
- binding result (dCREB2-b [5]): binds more weakly

Sequence: TGCACGGGTTTTCGACGTTCACTGGTAGTGTCTGATGAGGCCGAAAGGCCGAAACGCGATGCCCATAACCACCACGCTCAG (double strand) [Nonspecific competitor #1]
- binding result (dCREB2-b [5]): binds more weakly

Sequence: CTAGAGCTTGCAAGCATGCTTGCAAGCAAGCATGCTTGCAAGCATGCTTGCAAGC (double strand) [Nonspecific competitor #3]
- binding result (dCREB2-b [5]): binds more weakly

Sequence: CTCTAGAGCGTACGCAAGCGTACGCAAGCGTACG (double strand) [Nonspecific competitor #4]
- binding result (dCREB2-b [5]): binds more weakly

Sequence: AAATGACGTAACGGAAATGACGTAACGGAAATGACGTAACG (double strand) [3xCRE wild-type]
- binding result (dCREB1 [3]; higher-affinity binding than to 3xmCRE, label: 32P 5' end): binds
- binding result (dCREB2-b [4]; Tris-glycine gel with 3 mM MgCl2, label: 32P 5' end): binds
